The other results are listed elsewhere or left out.
The targets below were run with NCC(=O)Nc1ccc(-n2nc(C(F)(F)F)cc2-c2ccc3c(ccc4ccccc43)c2)cc1 (assay: log2 fold change, soluble protein after heating vs DMSO (PISA); higher = thermal stabilisation; K562 cells, 10 uM, 30 min; active = over 0.2 and 3.5 SD of the protein, either way, in both replicates (recomputed)).
Summary of the method: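 Soluble protein was defined as the supernatant after 21,000xg for 90 min. It came from K562 cells at 2×10^6 cells/mL given 10 μM compound for 30 min, heated in aliquots for 3 min across 48°C-58°C, pooled, and extracted in PBS with 0.5% NP-40 at 4°C, and was quantified by TMTpro 16plex LC-MS/MS with equalised channel sums. Thermal stability against control samples, from duplicates, is reported as log2 fold change.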

Amino acid sequences for entries named in this document (tags omitted). A change or cut given only in a name is not applied to a line headed by its entry.
UniProt P56556, whole entry, looked up: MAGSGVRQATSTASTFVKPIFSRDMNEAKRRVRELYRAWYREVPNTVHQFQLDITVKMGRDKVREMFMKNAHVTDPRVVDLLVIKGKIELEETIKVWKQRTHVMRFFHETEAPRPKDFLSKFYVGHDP
UniProt O43678, whole entry, looked up: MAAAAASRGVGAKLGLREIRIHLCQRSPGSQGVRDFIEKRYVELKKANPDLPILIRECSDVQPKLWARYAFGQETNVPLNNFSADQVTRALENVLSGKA
UniProt O43674, whole entry, looked up: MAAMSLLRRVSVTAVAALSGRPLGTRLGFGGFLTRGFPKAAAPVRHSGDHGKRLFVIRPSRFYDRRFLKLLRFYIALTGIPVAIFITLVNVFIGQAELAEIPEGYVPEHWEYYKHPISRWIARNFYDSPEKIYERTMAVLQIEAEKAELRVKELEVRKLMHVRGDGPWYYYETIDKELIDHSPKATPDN
UniProt Q8TBE9: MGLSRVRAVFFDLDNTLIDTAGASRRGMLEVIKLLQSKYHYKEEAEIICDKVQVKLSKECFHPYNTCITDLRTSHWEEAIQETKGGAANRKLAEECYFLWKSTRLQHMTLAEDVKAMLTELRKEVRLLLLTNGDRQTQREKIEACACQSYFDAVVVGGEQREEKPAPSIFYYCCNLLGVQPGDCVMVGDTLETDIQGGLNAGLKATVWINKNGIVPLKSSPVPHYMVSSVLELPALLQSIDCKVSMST
UniProt Q99733: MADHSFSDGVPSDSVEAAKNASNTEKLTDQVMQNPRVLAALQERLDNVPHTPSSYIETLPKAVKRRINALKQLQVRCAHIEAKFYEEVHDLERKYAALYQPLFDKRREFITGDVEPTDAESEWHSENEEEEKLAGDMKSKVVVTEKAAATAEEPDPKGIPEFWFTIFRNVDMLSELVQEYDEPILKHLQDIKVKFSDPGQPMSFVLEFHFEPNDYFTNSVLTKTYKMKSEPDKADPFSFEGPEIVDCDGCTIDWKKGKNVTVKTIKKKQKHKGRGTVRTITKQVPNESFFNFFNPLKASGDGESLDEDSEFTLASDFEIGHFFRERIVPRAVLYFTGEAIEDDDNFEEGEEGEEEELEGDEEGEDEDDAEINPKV
UniProt Q96NT1: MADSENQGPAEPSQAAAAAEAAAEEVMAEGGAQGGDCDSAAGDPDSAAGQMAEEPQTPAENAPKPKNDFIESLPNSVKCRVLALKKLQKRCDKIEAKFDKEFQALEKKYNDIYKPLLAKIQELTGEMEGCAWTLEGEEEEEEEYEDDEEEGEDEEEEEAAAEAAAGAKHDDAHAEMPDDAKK
UniProt Q6IA69: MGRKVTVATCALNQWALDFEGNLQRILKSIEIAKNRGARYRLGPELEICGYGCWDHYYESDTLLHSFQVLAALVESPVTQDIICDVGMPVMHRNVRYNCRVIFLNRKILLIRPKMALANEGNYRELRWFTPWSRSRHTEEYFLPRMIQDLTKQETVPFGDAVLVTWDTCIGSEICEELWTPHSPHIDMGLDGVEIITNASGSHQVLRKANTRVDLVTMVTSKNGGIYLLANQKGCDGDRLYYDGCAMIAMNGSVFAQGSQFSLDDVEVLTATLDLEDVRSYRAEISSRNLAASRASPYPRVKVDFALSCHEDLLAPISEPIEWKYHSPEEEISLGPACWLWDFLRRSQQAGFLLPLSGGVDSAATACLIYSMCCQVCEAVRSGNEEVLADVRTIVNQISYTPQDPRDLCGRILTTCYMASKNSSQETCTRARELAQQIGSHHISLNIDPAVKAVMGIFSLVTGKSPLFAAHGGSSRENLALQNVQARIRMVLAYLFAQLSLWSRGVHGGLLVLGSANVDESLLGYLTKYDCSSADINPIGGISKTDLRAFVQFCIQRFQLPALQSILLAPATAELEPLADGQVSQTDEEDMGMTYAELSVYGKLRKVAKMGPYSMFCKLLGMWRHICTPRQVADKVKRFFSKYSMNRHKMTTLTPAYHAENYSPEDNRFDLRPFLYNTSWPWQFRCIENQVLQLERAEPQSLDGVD
UniProt O75438, whole entry, looked up: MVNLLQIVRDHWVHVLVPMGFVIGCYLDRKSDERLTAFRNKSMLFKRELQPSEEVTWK
UniProt Q14686, whole entry, looked up: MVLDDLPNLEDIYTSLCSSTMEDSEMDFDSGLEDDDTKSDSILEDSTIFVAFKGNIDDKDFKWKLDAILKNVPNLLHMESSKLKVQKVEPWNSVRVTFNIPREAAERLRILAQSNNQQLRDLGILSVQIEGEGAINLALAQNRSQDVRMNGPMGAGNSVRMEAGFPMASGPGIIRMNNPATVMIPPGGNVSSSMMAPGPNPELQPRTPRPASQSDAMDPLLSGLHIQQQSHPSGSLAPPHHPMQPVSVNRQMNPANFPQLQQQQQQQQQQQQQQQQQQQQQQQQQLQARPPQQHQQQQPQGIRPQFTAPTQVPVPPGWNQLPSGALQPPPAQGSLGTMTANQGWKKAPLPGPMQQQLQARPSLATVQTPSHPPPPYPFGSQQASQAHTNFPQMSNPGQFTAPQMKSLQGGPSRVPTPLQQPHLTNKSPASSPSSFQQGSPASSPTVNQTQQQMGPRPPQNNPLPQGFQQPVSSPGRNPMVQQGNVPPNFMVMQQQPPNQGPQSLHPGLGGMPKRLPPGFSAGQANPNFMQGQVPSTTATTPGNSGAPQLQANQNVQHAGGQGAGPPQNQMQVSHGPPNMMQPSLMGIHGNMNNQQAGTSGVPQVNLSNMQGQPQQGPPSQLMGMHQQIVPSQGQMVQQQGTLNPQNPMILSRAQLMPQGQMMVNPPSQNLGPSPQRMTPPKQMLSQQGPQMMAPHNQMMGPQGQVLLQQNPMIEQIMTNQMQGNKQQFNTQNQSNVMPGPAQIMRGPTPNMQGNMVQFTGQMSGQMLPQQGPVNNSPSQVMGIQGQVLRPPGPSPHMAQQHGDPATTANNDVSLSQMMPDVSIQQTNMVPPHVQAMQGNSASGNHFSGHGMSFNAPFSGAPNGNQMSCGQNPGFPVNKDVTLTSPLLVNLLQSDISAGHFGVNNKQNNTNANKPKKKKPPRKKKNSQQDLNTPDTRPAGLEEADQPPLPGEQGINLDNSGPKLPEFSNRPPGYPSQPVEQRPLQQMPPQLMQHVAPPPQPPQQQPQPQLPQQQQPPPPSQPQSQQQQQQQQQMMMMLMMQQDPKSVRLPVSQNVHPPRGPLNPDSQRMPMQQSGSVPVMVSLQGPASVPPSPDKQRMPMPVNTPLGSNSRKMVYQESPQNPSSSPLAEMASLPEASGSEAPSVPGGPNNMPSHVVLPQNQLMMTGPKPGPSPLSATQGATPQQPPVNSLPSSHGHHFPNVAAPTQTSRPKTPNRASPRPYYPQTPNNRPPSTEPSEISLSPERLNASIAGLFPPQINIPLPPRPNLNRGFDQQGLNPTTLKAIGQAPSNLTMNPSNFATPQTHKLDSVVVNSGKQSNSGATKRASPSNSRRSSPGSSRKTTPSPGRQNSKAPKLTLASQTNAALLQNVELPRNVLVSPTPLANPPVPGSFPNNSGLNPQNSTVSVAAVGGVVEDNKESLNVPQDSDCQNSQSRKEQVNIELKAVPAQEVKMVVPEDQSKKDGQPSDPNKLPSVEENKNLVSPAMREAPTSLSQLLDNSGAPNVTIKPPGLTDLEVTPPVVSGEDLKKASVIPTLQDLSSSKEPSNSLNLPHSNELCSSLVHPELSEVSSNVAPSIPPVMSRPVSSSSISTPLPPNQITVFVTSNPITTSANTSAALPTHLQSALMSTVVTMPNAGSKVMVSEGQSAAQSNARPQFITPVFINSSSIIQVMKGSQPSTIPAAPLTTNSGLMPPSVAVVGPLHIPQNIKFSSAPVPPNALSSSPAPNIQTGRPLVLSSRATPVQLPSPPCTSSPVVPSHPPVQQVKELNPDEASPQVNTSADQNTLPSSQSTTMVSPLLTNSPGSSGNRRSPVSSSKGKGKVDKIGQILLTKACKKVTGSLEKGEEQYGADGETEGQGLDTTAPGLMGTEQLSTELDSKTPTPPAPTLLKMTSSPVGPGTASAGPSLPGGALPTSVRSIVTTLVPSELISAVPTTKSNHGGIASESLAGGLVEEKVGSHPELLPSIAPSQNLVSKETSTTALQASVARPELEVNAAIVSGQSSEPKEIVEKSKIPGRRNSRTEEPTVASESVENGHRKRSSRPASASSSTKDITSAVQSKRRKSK
UniProt O43181, whole entry, looked up: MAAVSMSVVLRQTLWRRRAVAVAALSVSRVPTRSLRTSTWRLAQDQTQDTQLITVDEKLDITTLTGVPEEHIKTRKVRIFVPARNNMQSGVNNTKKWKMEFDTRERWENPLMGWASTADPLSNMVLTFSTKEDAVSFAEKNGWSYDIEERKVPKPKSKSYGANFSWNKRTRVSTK
UniProt Q9UJ70, whole entry, looked up: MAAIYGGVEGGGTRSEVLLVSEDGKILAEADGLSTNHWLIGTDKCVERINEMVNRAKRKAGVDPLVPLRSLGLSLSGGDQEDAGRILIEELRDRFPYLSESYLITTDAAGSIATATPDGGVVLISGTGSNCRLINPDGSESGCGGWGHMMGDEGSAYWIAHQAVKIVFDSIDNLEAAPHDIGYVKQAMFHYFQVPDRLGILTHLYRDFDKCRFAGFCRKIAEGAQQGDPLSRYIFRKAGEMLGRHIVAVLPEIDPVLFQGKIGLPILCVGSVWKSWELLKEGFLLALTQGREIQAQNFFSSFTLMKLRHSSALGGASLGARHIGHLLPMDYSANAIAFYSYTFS
UniProt O00483, whole entry, looked up: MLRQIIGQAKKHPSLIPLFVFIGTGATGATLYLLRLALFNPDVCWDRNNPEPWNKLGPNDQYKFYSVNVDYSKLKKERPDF
UniProt Q96RE7: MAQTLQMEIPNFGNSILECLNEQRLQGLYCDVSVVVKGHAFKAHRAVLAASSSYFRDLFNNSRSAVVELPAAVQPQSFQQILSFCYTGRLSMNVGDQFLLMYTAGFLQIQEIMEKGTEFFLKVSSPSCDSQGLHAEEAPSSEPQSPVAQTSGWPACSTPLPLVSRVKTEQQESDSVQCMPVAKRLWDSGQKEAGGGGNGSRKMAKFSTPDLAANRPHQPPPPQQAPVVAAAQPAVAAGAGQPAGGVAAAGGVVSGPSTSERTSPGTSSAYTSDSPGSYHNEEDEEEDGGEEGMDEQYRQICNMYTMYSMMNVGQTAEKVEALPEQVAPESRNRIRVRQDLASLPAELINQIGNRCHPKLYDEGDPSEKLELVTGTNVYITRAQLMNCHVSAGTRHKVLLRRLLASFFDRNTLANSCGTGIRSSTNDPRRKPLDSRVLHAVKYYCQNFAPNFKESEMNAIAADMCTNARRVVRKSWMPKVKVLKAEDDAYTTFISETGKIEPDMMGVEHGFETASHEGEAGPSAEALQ
UniProt Q8NI08: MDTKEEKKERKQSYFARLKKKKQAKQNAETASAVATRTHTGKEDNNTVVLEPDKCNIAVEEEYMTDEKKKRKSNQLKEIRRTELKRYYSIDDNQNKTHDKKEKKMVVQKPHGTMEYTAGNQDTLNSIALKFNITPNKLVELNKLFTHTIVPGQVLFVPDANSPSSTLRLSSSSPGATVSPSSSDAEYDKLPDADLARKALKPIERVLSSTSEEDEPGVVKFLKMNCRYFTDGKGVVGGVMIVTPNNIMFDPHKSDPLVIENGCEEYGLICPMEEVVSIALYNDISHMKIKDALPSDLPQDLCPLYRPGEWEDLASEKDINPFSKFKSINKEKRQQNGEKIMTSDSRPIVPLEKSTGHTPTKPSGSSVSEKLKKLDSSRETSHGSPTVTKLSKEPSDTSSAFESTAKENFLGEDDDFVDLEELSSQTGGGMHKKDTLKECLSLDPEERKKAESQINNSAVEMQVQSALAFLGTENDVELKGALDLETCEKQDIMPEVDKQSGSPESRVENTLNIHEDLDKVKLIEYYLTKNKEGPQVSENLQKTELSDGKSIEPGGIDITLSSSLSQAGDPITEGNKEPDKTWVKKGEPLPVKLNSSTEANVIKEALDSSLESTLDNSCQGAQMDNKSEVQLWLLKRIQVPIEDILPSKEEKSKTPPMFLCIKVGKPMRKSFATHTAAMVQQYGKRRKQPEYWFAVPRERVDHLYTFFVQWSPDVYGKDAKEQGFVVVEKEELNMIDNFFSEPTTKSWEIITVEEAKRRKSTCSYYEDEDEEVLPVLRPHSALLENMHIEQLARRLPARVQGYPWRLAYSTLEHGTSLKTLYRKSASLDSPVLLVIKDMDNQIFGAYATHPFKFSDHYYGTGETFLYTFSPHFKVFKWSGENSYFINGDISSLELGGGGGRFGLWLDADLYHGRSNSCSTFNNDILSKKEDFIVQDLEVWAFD
UniProt O95299, whole entry, looked up: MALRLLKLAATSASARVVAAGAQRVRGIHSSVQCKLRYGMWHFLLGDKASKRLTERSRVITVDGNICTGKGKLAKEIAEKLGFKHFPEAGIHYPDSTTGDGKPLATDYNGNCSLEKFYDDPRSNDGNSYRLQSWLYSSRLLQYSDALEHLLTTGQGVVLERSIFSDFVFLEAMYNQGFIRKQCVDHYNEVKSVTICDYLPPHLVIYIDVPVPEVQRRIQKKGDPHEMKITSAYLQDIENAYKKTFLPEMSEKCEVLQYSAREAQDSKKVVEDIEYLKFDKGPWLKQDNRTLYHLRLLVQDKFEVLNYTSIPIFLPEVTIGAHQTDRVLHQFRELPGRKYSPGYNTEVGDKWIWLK
UniProt P56181: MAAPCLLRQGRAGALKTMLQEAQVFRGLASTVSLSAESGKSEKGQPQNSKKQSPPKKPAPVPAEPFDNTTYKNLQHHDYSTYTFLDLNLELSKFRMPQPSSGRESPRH

Target | log2 fold change
NDUFA6 (UniProt P56556) | inactive: -0.083
NARS2 (UniProt Q96I59) | inactive: -0.02
NEDD8 (UniProt Q15843) | inactive: -0.08
NDUFA2 (UniProt O43678) | inactive: 0.016
NDUFAF7 (UniProt Q7L592) | inactive: -0.078
NDUFB5 (UniProt O43674) | inactive: 0.052
NADK (UniProt O95544) | inactive: -0.016
NANP (UniProt Q8TBE9) | inactive: -0.142
NDUFS3 (UniProt O75489) | inactive: 0.039
NAP1L4 isoform 2 (UniProt Q99733) | inactive: 0.021
NAP1L5 (UniProt Q96NT1) | inactive: -0.011
NDRG3 (UniProt Q9UGV2) | inactive: -0.047
NADSYN1 (UniProt Q6IA69) | inactive: 0
NDUFA7 (UniProt O95182) | inactive: -0.059
NDUFB1 (UniProt O75438) | inactive: -0.134
NAA15, A0A0B4J1W3 | inactive: -0.066
NA, A0A096LPI6 | inactive: 0.016

Look-ups from the list:
NDUFB5 (UniProt O43674) – log2 fold change: inactive: 0.052
NDUFB1 (UniProt O75438) – log2 fold change: inactive: -0.134

Continuation.

Target | log2 fold change
NCEH1 isoform 2 (UniProt Q6PIU2) | inactive: -0.031
NDUFAF4 (UniProt Q9P032) | inactive: -0.022
NDUFC2 (UniProt O95298) | inactive: -0.005
NAF1 (UniProt Q96HR8) | inactive: 0.12
NCOA6 (UniProt Q14686) | inactive: -0.001
NDUFS4 (UniProt O43181) | inactive: 0.053
NAGK isoform 2 (UniProt Q9UJ70) | inactive: 0.013
NDUFA4 (UniProt O00483) | inactive: -0.013
NACC1 (UniProt Q96RE7) | inactive: -0.075
NEFH (UniProt P12036) | inactive: 0.108
NCSTN (UniProt Q92542) | inactive: -0.004
NDUFA3 (UniProt O95167) | inactive: -0.015
NCOA7 (UniProt Q8NI08) | inactive: -0.033
NDUFA10 (UniProt O95299) | inactive: -0.033
NACA (UniProt E9PAV3) | inactive: 0.024
NDUFV3 isoform 2 (UniProt P56181) | inactive: 0.003

— the supplement of paper PMC10849652
